Measurements reported in PubChem BioAssay AID1508588 (Peter MacCallum Cancer Centre, 2020).
Shown is one part, drawn at random, of about 18,000 deposited reagents. In the full data, 790 (4.4%) were called active. 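Calls rest on a combination of fold-change classes in drug and vehicle arms, not all shown here.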 Unmarked entries are inactive. Reagent sequences are not shown.

- Purpose: 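Knock-downs boosting vemurafenib effects on melanoma cell growth or lactate release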 (primary screen)
- Cell system: human WM266.4 melanoma cells (BRAF V600 mutant)
- Reagent: siRNA pool against human genes, 40 nM
- Duration: 96 h from transfection to read-out
- Conditions: vemurafenib 300 nM (about IC25), added 48 h after transfection, for 48 h; comparison arm got DMSO vehicle only
- Read-out: 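Cell gain (DAPI nuclei at end minus before drug, mean of two replicates) and medium lactate by absorbance per cell, both as ratio to non-targeting siRNA, also grouped into fold-change classes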
- Scale: cell gain with vemurafenib: higher = more cell gain than with non-targeting siRNA; lactate per cell with vemurafenib: higher = more lactate made per cell
- Active means: 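Enhancement is called by pairing each knock-down's vehicle-arm and drug-arm fold-change classes for viability or glycolysis; which class combinations qualify is not given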
- Calls: active = enhances vemurafenib effect; inactive = no enhancement seen

For CPLX1 (complexin 1), the entry reads cell gain with vemurafenib 0.2; lactate per cell with vemurafenib 1.75.
With knock-down of CANX (calnexin), the record shows cell gain with vemurafenib -0.17 (active); lactate per cell with vemurafenib -0.11.
After knock-down of ZNF513 (zinc finger protein 513) the results were cell gain with vemurafenib 0.12; lactate per cell with vemurafenib 1.25.
Knock-down of GPAM (glycerol-3-phosphate acyltransferase, mitochondrial) came out at: cell gain with vemurafenib 0.81; lactate per cell with vemurafenib 0.78.
After knock-down of TBC1D5 (TBC1 domain family member 5), the record shows cell gain with vemurafenib -0.08 (active); lactate per cell with vemurafenib 0.36.
GOT1 (glutamic-oxaloacetic transaminase 1) scored cell gain with vemurafenib 0.71; lactate per cell with vemurafenib 0.72.
ACLY (ATP citrate lyase) showed cell gain with vemurafenib 0.63; lactate per cell with vemurafenib 0.88.
Silencing of TSPO (translocator protein) gave: cell gain with vemurafenib 0.75; lactate per cell with vemurafenib 1.08.
Knock-down of NAP1L1 (nucleosome assembly protein 1 like 1) resulted in: cell gain with vemurafenib 0.63; lactate per cell with vemurafenib 0.78.
With knock-down of FAM221B (family with sequence similarity 221 member B) the results were cell gain with vemurafenib 0.16; lactate per cell with vemurafenib 1.76.
CCSER1 (coiled-coil serine rich protein 1) scored cell gain with vemurafenib 0.65; lactate per cell with vemurafenib 0.86.
For CLCA2 (chloride channel accessory 2), the values are cell gain with vemurafenib 0.59; lactate per cell with vemurafenib 0.87.
Against ZNF157 (zinc finger protein 157), the entry reads cell gain with vemurafenib 0.5; lactate per cell with vemurafenib 0.74.
For MASP2 (MBL associated serine protease 2), the entry reads cell gain with vemurafenib 0.46; lactate per cell with vemurafenib 0.67.
For TRPC4AP, the entry reads cell gain with vemurafenib 0.8; lactate per cell with vemurafenib 0.8.
Knock-down of GRM5 (glutamate metabotropic receptor 5) resulted in: cell gain with vemurafenib 0.25; lactate per cell with vemurafenib 0.86.
With knock-down of PCDHA2 (protocadherin alpha 2), the record shows cell gain with vemurafenib 0.48; lactate per cell with vemurafenib 0.32.
OGFOD2 gave cell gain with vemurafenib 0.79; lactate per cell with vemurafenib 0.66.
After knock-down of DNAJC11 (DnaJ heat shock protein family (Hsp40) member C11), the record shows cell gain with vemurafenib 0.03; lactate per cell with vemurafenib 1.58.
Against IFI44 (interferon induced protein 44) the deposit lists cell gain with vemurafenib 0.75; lactate per cell with vemurafenib 0.73.
SCAMP5 gave cell gain with vemurafenib 0.78; lactate per cell with vemurafenib 0.72.
STBD1 (starch binding domain 1) scored cell gain with vemurafenib 0.3; lactate per cell with vemurafenib 0.9.
Knock-down of OSBPL8 (oxysterol binding protein like 8) resulted in: cell gain with vemurafenib 0.38; lactate per cell with vemurafenib 1.04.
After knock-down of VGF (VGF nerve growth factor inducible), the screen gave cell gain with vemurafenib 0.51; lactate per cell with vemurafenib 1.17.
PRMT7 (protein arginine methyltransferase 7) gave cell gain with vemurafenib 0.43; lactate per cell with vemurafenib 0.78.
Knock-down of UMPS (uridine monophosphate synthetase) gave: cell gain with vemurafenib 0.51 (active); lactate per cell with vemurafenib 0.7.
FBXO17 (F-box protein 17) gave cell gain with vemurafenib 0.36; lactate per cell with vemurafenib 2.24.
With knock-down of PNRC2 (proline rich nuclear receptor coactivator 2) the results were cell gain with vemurafenib 1.28; lactate per cell with vemurafenib 0.68.
EIF3F (eukaryotic translation initiation factor 3 subunit F) gave cell gain with vemurafenib 0.29 (active); lactate per cell with vemurafenib 0.32.
SLC39A9 showed cell gain with vemurafenib 0.11; lactate per cell with vemurafenib 1.17.
With knock-down of PGP (phosphoglycolate phosphatase), the record shows cell gain with vemurafenib 0.48; lactate per cell with vemurafenib 1.08.
With knock-down of MARCHF7 (membrane associated ring-CH-type finger 7), the record shows cell gain with vemurafenib 1.03; lactate per cell with vemurafenib 0.82.
Against EMC3 (ER membrane protein complex subunit 3), the entry reads cell gain with vemurafenib 0.24 (active); lactate per cell with vemurafenib 0.58.
FBXO27 (F-box protein 27) scored cell gain with vemurafenib 0.29; lactate per cell with vemurafenib 1.77.
With knock-down of COL3A1 (collagen type III alpha 1 chain), the record shows cell gain with vemurafenib 0.29; lactate per cell with vemurafenib 0.66.
KIF27 (kinesin family member 27) scored cell gain with vemurafenib 0.97; lactate per cell with vemurafenib 1.23.
With knock-down of ADCYAP1 (adenylate cyclase activating polypeptide 1) the results were cell gain with vemurafenib 0.71; lactate per cell with vemurafenib 0.69.
MDH2 (malate dehydrogenase 2) gave cell gain with vemurafenib 0.85; lactate per cell with vemurafenib 0.65.
For RPS6KA3 (ribosomal protein S6 kinase A3), the entry reads cell gain with vemurafenib 0.78; lactate per cell with vemurafenib 0.76.
Silencing of NKTR (natural killer cell triggering receptor) came out at: cell gain with vemurafenib 1.05; lactate per cell with vemurafenib 0.49.

3 entries from above, reformatted:
target	cell gain with vemurafenib	lactate per cell with vemurafenib
GRM5 (glutamate metabotropic receptor 5)	0.25	0.86
PCDHA2 (protocadherin alpha 2)	0.48	0.32
OGFOD2	0.79	0.66
